Values from PubChem BioAssay AID1259308 (NCATS, 2017).

Test: 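Candidate targets for better recombinant protein yield in mammalian cells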 (primary screen)
System: human HEK293 embryonic kidney cells stably expressing firefly luciferase (HEK-CMV-Luc2-Hygro)
Reagents: single siRNA against human genes, 0.8 pmol siRNA per well
Duration: 72 h
Measured: 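Luciferase light (ONE-Glo) measured on one replicate plate set and viability (CellTiter-Glo) on the other, scaled to a negative control siRNA, with robust z-scores and luciferase per cell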
Scale: total luciferase, z-score and total luciferase, % of control: higher = more reporter protein produced; luciferase per cell, z-score: higher = more reporter output per viable cell; viable cells, % of control: higher = more viable cells
Call rule: 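Active when the median/MAD z-score for overall luciferase is greater than 3; a gene was taken forward for validation with new siRNAs if at least two of its three siRNAs passed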
Calls: active = raised luciferase; inactive = no rise
The deposit covers about 59,000 reagents; below is a part drawn at random. About 1,510 of all reagents (2.6%) were called active. 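Calls use total luciferase alone and ignore viability, so some active siRNAs may act by altering cell number.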 Reagents against one gene are numbered here.

target gene	reagent no.	total luciferase, z-score	total luciferase, % of control	luciferase per cell, z-score	viable cells, % of control	activity call
IL31RA (interleukin 31 receptor A)	1	1.84	118	1.7	84.6	inactive
IL31RA (interleukin 31 receptor A)	2	0.45	90.8	0.527	88.3	inactive
IL31RA (interleukin 31 receptor A)	3	-0.155	78.8	-0.963	113	inactive
KCNK1 (potassium two pore domain channel subfamily K member 1)	1	-1.7	48	-2.27	97.6	inactive
KCNK1 (potassium two pore domain channel subfamily K member 1)	2	0.685	95.5	1.01	81.9	inactive
KCNK1 (potassium two pore domain channel subfamily K member 1)	3	1.5	112	0.69	104	inactive
AIPL1 (AIP like 1 HSP90 co-chaperone)	1	0.0952	83.8	-0.246	99.9	inactive
AIPL1 (AIP like 1 HSP90 co-chaperone)	2	-2.05	41.2	-2.1	80	inactive
AIPL1 (AIP like 1 HSP90 co-chaperone)	3	0.491	91.7	0.649	86.3	inactive
OR2T4 (olfactory receptor family 2 subfamily T member 4)	1	-0.838	65.2	-1.53	109	inactive
OR2T4 (olfactory receptor family 2 subfamily T member 4)	2	0.31	88.1	0.468	87	inactive
OR2T4 (olfactory receptor family 2 subfamily T member 4)	3	1.37	109	0.777	99.4	inactive
ELP4 (elongator acetyltransferase complex subunit 4)	1	0.0446	82.8	-0.351	101	inactive
ELP4 (elongator acetyltransferase complex subunit 4)	2	-0.339	75.2	-0.714	101	inactive
ELP4 (elongator acetyltransferase complex subunit 4)	3	1.05	103	1.83	70.8	inactive
PCDHGA3 (protocadherin gamma subfamily A, 3)	1	-0.085	80.2	0.876	71.2	inactive
PCDHGA3 (protocadherin gamma subfamily A, 3)	2	-0.999	62	-1.28	97	inactive
PCDHGA3 (protocadherin gamma subfamily A, 3)	3	0.27	87.3	0.0873	95.3	inactive
LOC730668 (dynein heavy chain -like pseudogene)	1	2.14	124	1.89	84.5	inactive
LOC730668 (dynein heavy chain -like pseudogene)	2	-0.151	78.9	0.245	82.6	inactive
LOC730668 (dynein heavy chain -like pseudogene)	3	-1.2	58	-1.88	107	inactive
IGF2R (insulin like growth factor 2 receptor)	1	2.6	134	2.21	83.4	inactive
IGF2R (insulin like growth factor 2 receptor)	2	0.649	94.8	0.0723	104	inactive
IGF2R (insulin like growth factor 2 receptor)	3	-1.4	53.9	-1.33	85.6	inactive
KLHL2P1 (kelch like family member 2 pseudogene 1)	1	-0.494	72.1	0.042	79.6	inactive
KLHL2P1 (kelch like family member 2 pseudogene 1)	2	-0.841	65.2	-0.421	81.3	inactive
KLHL2P1 (kelch like family member 2 pseudogene 1)	3	0.631	94.4	0.703	87.7	inactive
CEACAM19 (CEA cell adhesion molecule 19)	1	0.621	94.2	-0.0821	108	inactive
CEACAM19 (CEA cell adhesion molecule 19)	2	1.49	112	1.75	78.7	inactive
CEACAM19 (CEA cell adhesion molecule 19)	3	0.263	87.1	0.0757	95.4	inactive
SOX3 (SRY-box transcription factor 3)	1	-1.09	60.3	-1.06	89.1	inactive
SOX3 (SRY-box transcription factor 3)	2	0.336	88.6	-0.301	107	inactive
SOX3 (SRY-box transcription factor 3)	3	0.0256	82.4	-0.295	99.5	inactive
NUDT17 (nudix hydrolase 17)	1	-2.21	37.9	-1.48	62.5	inactive
NUDT17 (nudix hydrolase 17)	2	1.73	116	1.14	96.3	inactive
NUDT17 (nudix hydrolase 17)	3	-0.583	70.3	-0.795	96.8	inactive
PROSER3 (proline and serine rich 3)	1	-1.47	52.6	-0.618	69.1	inactive
PROSER3 (proline and serine rich 3)	2	-0.109	79.7	-0.556	103	inactive
PROSER3 (proline and serine rich 3)	3	0.485	91.5	-0.257	109	inactive

10 entries from above in another layout.
{"target gene":"KCNK1 (potassium two pore domain channel subfamily K member 1)","reagent no.":3,"total luciferase, z-score":1.5,"total luciferase, % of control":112,"luciferase per cell, z-score":0.69,"viable cells, % of control":104,"activity call":"inactive"}
{"target gene":"AIPL1 (AIP like 1 HSP90 co-chaperone)","reagent no.":1,"total luciferase, z-score":0.0952,"total luciferase, % of control":83.8,"luciferase per cell, z-score":-0.246,"viable cells, % of control":99.9,"activity call":"inactive"}
{"target gene":"AIPL1 (AIP like 1 HSP90 co-chaperone)","reagent no.":2,"total luciferase, z-score":-2.05,"total luciferase, % of control":41.2,"luciferase per cell, z-score":-2.1,"viable cells, % of control":80,"activity call":"inactive"}
{"target gene":"AIPL1 (AIP like 1 HSP90 co-chaperone)","reagent no.":3,"total luciferase, z-score":0.491,"total luciferase, % of control":91.7,"luciferase per cell, z-score":0.649,"viable cells, % of control":86.3,"activity call":"inactive"}
{"target gene":"OR2T4 (olfactory receptor family 2 subfamily T member 4)","reagent no.":1,"total luciferase, z-score":-0.838,"total luciferase, % of control":65.2,"luciferase per cell, z-score":-1.53,"viable cells, % of control":109,"activity call":"inactive"}
{"target gene":"OR2T4 (olfactory receptor family 2 subfamily T member 4)","reagent no.":2,"total luciferase, z-score":0.31,"total luciferase, % of control":88.1,"luciferase per cell, z-score":0.468,"viable cells, % of control":87,"activity call":"inactive"}
{"target gene":"OR2T4 (olfactory receptor family 2 subfamily T member 4)","reagent no.":3,"total luciferase, z-score":1.37,"total luciferase, % of control":109,"luciferase per cell, z-score":0.777,"viable cells, % of control":99.4,"activity call":"inactive"}
{"target gene":"ELP4 (elongator acetyltransferase complex subunit 4)","reagent no.":1,"total luciferase, z-score":0.0446,"total luciferase, % of control":82.8,"luciferase per cell, z-score":-0.351,"viable cells, % of control":101,"activity call":"inactive"}
{"target gene":"ELP4 (elongator acetyltransferase complex subunit 4)","reagent no.":2,"total luciferase, z-score":-0.339,"total luciferase, % of control":75.2,"luciferase per cell, z-score":-0.714,"viable cells, % of control":101,"activity call":"inactive"}
{"target gene":"ELP4 (elongator acetyltransferase complex subunit 4)","reagent no.":3,"total luciferase, z-score":1.05,"total luciferase, % of control":103,"luciferase per cell, z-score":1.83,"viable cells, % of control":70.8,"activity call":"inactive"}

Continued:
target gene	reagent no.	total luciferase, z-score	total luciferase, % of control	luciferase per cell, z-score	viable cells, % of control	activity call
GSS (glutathione synthetase)	1	-0.00156	81.9	-0.0401	92.4	inactive
GSS (glutathione synthetase)	2	1.44	110	1.79	77	inactive
GSS (glutathione synthetase)	3	0.789	97.6	0.792	88.5	inactive
SERPINB12 (serpin family B member 12)	1	-0.366	74.6	0.129	80.6	inactive
SERPINB12 (serpin family B member 12)	2	-0.437	73.2	-0.789	101	inactive
SERPINB12 (serpin family B member 12)	3	-0.884	64.3	-0.901	91.1	inactive
CNOT8 (CCR4-NOT transcription complex subunit 8)	1	0.925	100	0.312	103	inactive
CNOT8 (CCR4-NOT transcription complex subunit 8)	2	1.55	113	1.02	96.4	inactive
CNOT8 (CCR4-NOT transcription complex subunit 8)	3	1.32	108	0.999	92.9	inactive
GNPDA1 (glucosamine-6-phosphate deaminase 1)	1	0.304	87.9	0.18	93.7	inactive
GNPDA1 (glucosamine-6-phosphate deaminase 1)	2	-2.43	33.5	-0.836	46.7	inactive
GNPDA1 (glucosamine-6-phosphate deaminase 1)	3	0.687	95.6	0.484	94	inactive
TAS2R39 (taste 2 receptor member 39)	1	0.22	86.3	-0.0179	96.8	inactive
TAS2R39 (taste 2 receptor member 39)	2	-0.787	66.2	-0.033	74.7	inactive
TAS2R39 (taste 2 receptor member 39)	3	-0.539	71.2	-0.513	91	inactive
LPIN2 (lipin 2)	1	0.135	84.6	0.138	91.1	inactive
LPIN2 (lipin 2)	2	-0.625	69.5	-0.988	101	inactive
LPIN2 (lipin 2)	3	2.81	138	1.02	118	inactive
SERTAD3 (SERTA domain containing 3)	1	1.56	113	0.972	97.7	inactive
SERTAD3 (SERTA domain containing 3)	2	-0.725	67.5	-0.613	88.6	inactive
SERTAD3 (SERTA domain containing 3)	3	-0.521	71.5	0.645	67.4	inactive
SCGN (secretagogin, EF-hand calcium binding protein)	1	0.693	95.7	0.735	88.1	inactive
SCGN (secretagogin, EF-hand calcium binding protein)	2	-0.423	73.5	0.00156	82.1	inactive
SCGN (secretagogin, EF-hand calcium binding protein)	3	3	141	3.38	64.9	inactive
RETNLB (resistin like beta)	1	-0.467	72.6	-1.12	109	inactive
RETNLB (resistin like beta)	2	0.634	94.5	0.89	83.5	inactive
RETNLB (resistin like beta)	3	0.227	86.4	-0.118	99.6	inactive
NXF2B (nuclear RNA export factor 2B)	1	0.194	85.7	0.589	82	inactive
NXF2B (nuclear RNA export factor 2B)	2	0.175	85.4	0.27	88.8	inactive
NXF2B (nuclear RNA export factor 2B)	3	1.9	120	2.03	78.3	inactive
CALML5 (calmodulin like 5)	1	-1.53	51.5	-1.3	81.2	inactive
CALML5 (calmodulin like 5)	2	0.326	88.4	0.756	80.9	inactive
CALML5 (calmodulin like 5)	3	0.465	91.1	0.528	88.6	inactive
GRAPL-AS1 (GRAPL antisense RNA 1)	1	1.13	104	1.24	84.3	inactive
GRAPL-AS1 (GRAPL antisense RNA 1)	2	0.341	88.7	0.415	88.8	inactive
GRAPL-AS1 (GRAPL antisense RNA 1)	3	0.284	87.5	-0.335	107	inactive
